Tests used:
[1] = tested on: GABAAR on immortalized human microglia; assay: Automated patch clamp, immortalized human microglia; assay type: cell-based; conditions: −80 mV, read-out: EC50 of current response
[2] = tested on: GABAAR on HMC3 human microglia cells; conditions: read-out: EC50 of current response, patch clamped at −80 mV
[3] = tested on: GABAAR on immortalized mouse microglia; assay: Automated patch clamp, immortalized mouse microglia; assay type: cell-based; conditions: −80 mV, read-out: EC50 of current response

## NCCCC(=O)O [GABA]
[1]
  EC50: 1940 nM
[2]
  EC50: 270 nM
[3]
  EC50: 260 nM
